# Assay results taken from publication PMC11842806, “Molecular basis of foreign DNA recognition by BREX anti-phage immunity system” (Nature Communications, 2025).
# For some assays here: Negatives hold for the conditions tested. Where a protein sequence is shown, tags need not be part of it. A weaker result is weaker than the reference pair of the same experiment. For some assays here: Construct, isoform or probe ends are uncertain for at least one entry.
# Columns and labels:
# [1] = target: T1, BrxX (PglX) (Escherichia coli HS) (UniProt P0DUF9); test: EMSA; settings: EMSA: 20 nM Cy5-DNA, 0.5x TBE pH 8.0, 35 mM NaCl, 5% glycerol, +/-0.5 mM SAM or SAH, 30 min, room temperature, recombinant protein, residues 1-1205, protein details: N-His6
# T1 sequence (looked up): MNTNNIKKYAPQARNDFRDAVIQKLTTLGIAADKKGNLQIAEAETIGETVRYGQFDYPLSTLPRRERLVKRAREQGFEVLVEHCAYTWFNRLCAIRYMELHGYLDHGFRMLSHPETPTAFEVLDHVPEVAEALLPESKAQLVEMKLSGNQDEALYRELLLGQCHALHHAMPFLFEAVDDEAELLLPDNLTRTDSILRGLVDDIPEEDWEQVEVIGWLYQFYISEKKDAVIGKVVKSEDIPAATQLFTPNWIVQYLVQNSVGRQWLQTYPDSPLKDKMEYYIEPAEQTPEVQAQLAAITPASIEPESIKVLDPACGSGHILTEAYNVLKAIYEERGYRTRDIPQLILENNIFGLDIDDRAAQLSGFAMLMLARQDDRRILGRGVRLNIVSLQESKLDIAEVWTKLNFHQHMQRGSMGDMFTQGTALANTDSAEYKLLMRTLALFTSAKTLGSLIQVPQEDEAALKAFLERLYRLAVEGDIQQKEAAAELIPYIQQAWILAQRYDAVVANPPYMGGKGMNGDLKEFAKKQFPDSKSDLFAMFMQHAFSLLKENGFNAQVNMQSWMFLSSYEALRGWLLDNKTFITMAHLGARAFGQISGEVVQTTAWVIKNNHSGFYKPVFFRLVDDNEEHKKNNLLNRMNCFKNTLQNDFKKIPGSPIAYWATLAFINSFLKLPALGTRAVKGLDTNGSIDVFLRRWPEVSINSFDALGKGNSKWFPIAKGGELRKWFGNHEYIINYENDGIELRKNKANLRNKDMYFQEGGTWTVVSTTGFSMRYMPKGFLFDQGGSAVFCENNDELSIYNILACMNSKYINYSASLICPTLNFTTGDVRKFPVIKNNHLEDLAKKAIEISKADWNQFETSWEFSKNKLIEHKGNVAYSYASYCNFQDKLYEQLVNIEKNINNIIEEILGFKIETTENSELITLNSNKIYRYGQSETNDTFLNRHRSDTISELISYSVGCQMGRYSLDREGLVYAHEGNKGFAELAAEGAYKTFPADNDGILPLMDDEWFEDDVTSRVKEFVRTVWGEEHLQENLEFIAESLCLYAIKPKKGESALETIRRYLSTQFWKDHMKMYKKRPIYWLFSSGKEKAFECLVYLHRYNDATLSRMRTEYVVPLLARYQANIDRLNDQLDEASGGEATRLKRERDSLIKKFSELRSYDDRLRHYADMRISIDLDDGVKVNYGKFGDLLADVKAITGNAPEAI
# [2] = target: T2, BrxL (Escherichia coli HS) (UniProt P0DUG1); test: EMSA; settings: bound, affinity lower than previously reported; EMSA: 20 nM Cy5-DNA, 0.5x TBE pH 8.0, 35 mM NaCl, 5% glycerol, +/-0.5 mM SAM or SAH, 30 min, room temperature; recombinant protein; protein details: N-His6; label: 5'-Cy5 on strand 1
# T2 sequence (looked up, limits assumed): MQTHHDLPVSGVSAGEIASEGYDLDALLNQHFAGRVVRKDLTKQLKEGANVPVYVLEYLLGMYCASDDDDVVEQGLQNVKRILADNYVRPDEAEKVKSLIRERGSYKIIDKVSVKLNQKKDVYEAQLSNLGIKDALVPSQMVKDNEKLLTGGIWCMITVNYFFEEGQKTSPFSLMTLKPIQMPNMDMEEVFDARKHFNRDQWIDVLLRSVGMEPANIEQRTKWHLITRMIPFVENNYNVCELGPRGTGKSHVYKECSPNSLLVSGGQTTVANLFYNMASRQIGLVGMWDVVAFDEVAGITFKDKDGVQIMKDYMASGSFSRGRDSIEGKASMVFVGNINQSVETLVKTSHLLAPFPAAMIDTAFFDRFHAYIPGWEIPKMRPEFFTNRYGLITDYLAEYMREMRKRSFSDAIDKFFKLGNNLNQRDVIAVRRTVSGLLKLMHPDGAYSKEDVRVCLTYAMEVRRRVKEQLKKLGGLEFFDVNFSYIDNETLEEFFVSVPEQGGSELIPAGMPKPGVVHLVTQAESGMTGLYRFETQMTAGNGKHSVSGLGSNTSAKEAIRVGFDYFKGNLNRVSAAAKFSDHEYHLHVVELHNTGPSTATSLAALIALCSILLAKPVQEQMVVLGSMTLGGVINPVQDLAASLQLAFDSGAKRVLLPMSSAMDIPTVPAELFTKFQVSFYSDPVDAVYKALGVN
# [3] = target: T1, BrxX (PglX) (Escherichia coli HS); test: BLI; settings: BLI: 20 mM Tris-HCl pH 8.0, 100 mM NaCl, 0.05 mg/mL BSA, 0.02% Tween-20, +/-0.5 mM SAM, 30 C, recombinant protein, residues 1-1205, protein details: N-His6, label: 5'-biotin on strand 1
# [4] = with and without 0.5 mM SAM, label: 5'-Cy5 on strand 1
# [5] = with and without 0.5 mM SAM, no clear site preference, label: 5'-Cy5, single-stranded DNA
sequence,measurement,setting,value
AGTCAAGTCAGTGGTAAGGTCAGGACAGGA (double strand) [30 bp BREX],binding result,[1]; [4],binds more weakly
AGTCAGTAGTGAGGTCAGGAATGAGTCAGTCTCACTGTCAGGA (double strand) [43 bp scrambled],Kd,"[1]; no cofactor, text: low-affinity non-specific binding, label: 5'-Cy5 on strand 1",> 1000 nM
same,binding result,[2],binds more weakly
AGTCAGTAGTGAGGTCAGGAATGAGTCAGTCTCACTGTCAGGA [43 nt ssDNA scrambled],binding result,[1]; [5],binds
"AGTCAGTCCCCCCGTCAGGA (double strand) [20 bp polyC, biotin]",binding result,[3]; Kd only in figure,binds more weakly
AGTCAGTGGTAAGGTCAGGA (double strand) [20 bp BREX],binding result,[1]; [4],binds more weakly
"AGTCAGTGGTAAGGTCAGGAATGAGTCAGTTGGCAAGTCAGGA (double strand) [43 bp, 1 BREX site]",binding result,[2],binds more weakly
"AGTCAGTGGTAAGGTCAGGAATGAGTCAGTTGGCAAGTCAGGA [43 nt ssDNA, 1 BREX site]",binding result,[1]; [5],binds
"TCAGTAGTCAAGTCAGTCCCCCCGTCAGGACAGGAGTCAG (double strand) [40 bp polyC, biotin]",binding result,"[3]; SAM, heterogeneous binding, no accurate Kd",binds more weakly
TCAGTAGTCAAGTCAGTGGTAAGGTCAGGACAGGAGTCAG (double strand) [40 bp BREX],binding result,"[1]; 1.5-fold excess Ocr dimer over BrxX, added after DNA, DNA released, label: 5'-Cy5 on strand 1",no binding
same,binding result,"[1]; equimolar Ocr dimer preincubated with BrxX, label: 5'-Cy5 on strand 1",no binding
TCAGTAGTCAAGTCAGTGGTAAGGTCAGGACAGGAGTCAG (double strand) [40 bp methylated BREX],binding result,"[1]; 0.5 mM SAH, N6-methyladenine at fifth base of GGTAAG (strand 1 position 22), label: 5'-Cy5 on strand 1",binds more weakly
same,binding result,"[1]; 0.5 mM SAM, N6-methyladenine at fifth base of GGTAAG (strand 1 position 22), label: 5'-Cy5 on strand 1",binds more weakly
same,binding result,"[1]; no cofactor, N6-methyladenine at fifth base of GGTAAG (strand 1 position 22), label: 5'-Cy5 on strand 1",binds more weakly
